In PubChem BioAssay AID504834 (National Center for Advancing Translational Sciences (NCATS), 2011):
The whole screen tested about 320,000 compounds, of which about 22,000 (6.9%) were called active. The shares of active, inactive and inconclusive entries below differ from those in the screen. The call rests on the fitted dose curve; in most records, active means well fitted inhibition curve with a large enough effect; inconclusive means small, poorly fitted or top-dose-only effect, or another doubt; inactive means no such curve, though single readings can be large or run the other way. Where the call is inconclusive, the potency comes from a doubtful curve fit.

Experiment: Primary qHTS for delayed death inhibitors of the malarial parasite plastid, 96 hour incubation
Settings: P. falciparum luciferase reporter growth; series mostly up to 28.7 µM; activity change, negative = inhibition: at the top concentration
In short: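 Plates of compound plus infected erythrocytes (2% hematocrit, 0.05% parasitemia final) incubate 96 hours, 37 C, 5% CO2. Detection reagent added; reduced luminescence from the parasites' luciferase reporter flags inhibition.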
On the % scale 0 is the no-effect control and ±100 the full control effect; potency means the concentration at half of the fitted maximal effect.

Structure (SMILES)	Potency	activity change, negative = inhibition
O=[N+]([O-])c1cccc(NC(=S)N2CCN(c3ccccn3)CC2)c1	inconclusive: 18.5 µM [inhibitor, single point]	
O=C(NCc1ccccc1Cl)C(=O)NCC1CCCN1S(=O)(=O)c1cccs1 (stereo not drawn)	inconclusive: 14.7 µM [inhibitor, partial curve, poor fit]	
Cc1nnc(NC(=O)CCC(=O)N2CCN(CCOc3cccc4ccccc34)CC2)s1	inconclusive: 3.7 µM [inhibitor, partial curve]	
CCn1cc(C(=O)N[C@@H](CC(C)C)C(=O)NCCCn2ccnc2)c(=O)c2cc3c(cc21)OCO3	inconclusive: 10.4 µM [inhibitor, single point]	
COc1ccccc1CNC(=O)Cn1cnc2ccccc2c1=O		inactive: 6.01%
O=C(Nc1ncc2c(n1)-c1ccccc1OC2)c1ccccc1Cl	inconclusive: 0.0262 µM [inhibitor, full curve, poor fit]	
Oc1oc(-c2ccccc2Br)nc1C=Nc1ccc(Br)cn1		inactive: 0%
CCN(CC)c1ccc(N2C(=NC(=O)C3CC3)SC3CS(=O)(=O)CC32)cc1 (stereo not drawn)		inactive: 7.7%
C/C(=N/NC(=O)CN1CCN(S(=O)(=O)c2ccc(Br)cc2)CC1)c1ccncc1	inconclusive: 18.5 µM [inhibitor, single point]	
Cc1sc2nc(SCC(=O)N3CC(C)OC(C)C3)n(C)c(=O)c2c1C (stereo not drawn)	inconclusive: 7.38 µM [inhibitor, partial curve]	
Cc1cccc(Nc2nc3c(s2)CCCC3)c1	inconclusive: 16.5 µM [inhibitor, partial curve, poor fit]	
Cc1ccc(C(=O)N2CCCC2)cc1Br		inactive: 17.3%
CCCC1(C)Nc2ccccc2-c2nc3ccccc3n21 (stereo not drawn)	active: 2.08 µM	
NS(=O)(=O)c1ccc(NC(=O)COC(=O)COc2ccc(Cl)cc2)cc1		inactive: -21.4%
O=C(Nc1ccc(OC(F)(F)F)cc1)C1CCCN(C(=O)c2ccc(Cl)cc2)C1 (stereo not drawn)	inconclusive: 13.1 µM [inhibitor, partial curve]	
Cc1ccc(OCC(=O)Nc2ccc(S(=O)(=O)N3CCOCC3)cc2)c([N+](=O)[O-])n1	inconclusive: 0.131 µM [inhibitor, full curve, poor fit]	
COc1ccc(-c2nnc(SCC3CCCO3)n2C)cc1 (stereo not drawn)		inactive: -8.05%
O=C(NCCCN1CCN(c2cccc(Cl)c2)CC1)c1nc(-c2ccncc2)no1		inactive: 5.07%
O=C(/C=C/Nc1ccc(S(=O)(=O)Nc2cnc3ccccc3n2)cc1)c1ccccc1	inconclusive: 2.94 µM [inhibitor, partial curve, poor fit]	
COc1ccc(C)cc1NC(=O)CNC(=O)[C@@H]1Cc2ccccc2CN1		inactive: 37.3%
CCNS(=O)(=O)c1ccc(CCC(=O)N2CCOCC2)cc1	inconclusive: 18.5 µM [inhibitor, single point]	
N#CC(C#N)=C1C=C2C=C(N3CCCCCC3)CCC2CC1 (stereo not drawn)	inconclusive: 0.738 µM [inhibitor, full curve]	
CCN(CC#CCC1(O)c2ccccc2-c2ccccc21)C(C)C		inactive: -4.14%
COc1ccccc1NS(=O)(=O)c1cccc(N2CC(O)=C(c3ccccc3)C2=N)c1	inconclusive: 9.28 µM [inhibitor, partial curve]	

A section of the results above, for reference:
Structure (SMILES)	Potency	activity change, negative = inhibition
O=C(Nc1ncc2c(n1)-c1ccccc1OC2)c1ccccc1Cl	inconclusive: 0.0262 µM [inhibitor, full curve, poor fit]	
Oc1oc(-c2ccccc2Br)nc1C=Nc1ccc(Br)cn1		inactive: 0%
CCN(CC)c1ccc(N2C(=NC(=O)C3CC3)SC3CS(=O)(=O)CC32)cc1 (stereo not drawn)		inactive: 7.7%
C/C(=N/NC(=O)CN1CCN(S(=O)(=O)c2ccc(Br)cc2)CC1)c1ccncc1	inconclusive: 18.5 µM [inhibitor, single point]	

Further records follow:

Structure (SMILES)	Potency	activity change, negative = inhibition
CC(C)CN(C(=O)COC(=O)c1ccc2c(c1)NC(=O)CS2)C1CCS(=O)(=O)C1 (stereo not drawn)		inactive: -36.6%
COc1ccc(Nc2nc(-c3cccc([N+](=O)[O-])c3)nc3ccccc23)cc1	inconclusive: 11.7 µM [inhibitor, single point]	
CCOC(=O)Nc1ccc2c(c1)nc(CN1CCOCC1)n2C	inconclusive: 11.7 µM [inhibitor, single point]	
CCCc1nc2ccccc2n1CCc1ccccc1	active: 3.7 µM	
COC(=O)c1cc(OC)c(OC)cc1NC(=O)c1csc(C)c1	inconclusive: 20.8 µM [inhibitor, single point]	
CN1/C(=C/c2cccc[n+]2CCO)Sc2ccccc21	inconclusive: 7.38 µM [inhibitor, partial curve, poor fit]	
Cc1ccsc1/C=N/NC(=O)c1ccccn1		inactive: 24.3%
CC1CC(Nc2ccccc2)c2ccccc2N1C(=O)c1cccnc1 (stereo not drawn)		inactive: 4.71%
COc1ccc(OCc2cc(C(=O)NCc3cccc(C)n3)no2)c(Cl)c1		inactive: 41.4%
COC(=O)c1ccc(CSc2nc3c(cnn3-c3ccc(C)c(C)c3)c(=O)[nH]2)o1	inconclusive: 18.5 µM [inhibitor, single point]	
CC(Oc1ccc2c3c(c(=O)oc2c1)CCCC3)C(=O)NC1CC(C)(C)NC(C)(C)C1 (stereo not drawn)	active: 9.28 µM	
Cc1ccc2c(c1)NC(=O)C(CC(=O)NCCN(C)C)O2 (stereo not drawn)	active: 1.65 µM	
CCOC(=O)Cn1c2ccccc2c2nc3ccccc3nc21		inactive: 59.7%
O=C(O)C/C=C(/NC(=O)OCc1ccccc1)C(=O)OCc1ccccc1		inactive: -28.4%
CCOC(=O)C1CCN(S(=O)(=O)c2cccc(-c3cn4cccc(C)c4n3)c2)CC1		inactive: -5.98%
COc1ccc(OC)c(CN2CCN(C(=O)c3cccc(S(=O)(=O)Nc4ccc(C)cc4)c3)CC2)c1	active: 9.28 µM	
CC(C)C[C@H](NC(=O)c1nc[nH]c1C(=O)NC(c1ccccc1)c1ccccc1)C(=O)OCc1ccccc1	active: 2.94 µM	
O=C(CSc1nncn1-c1ccccc1)Nc1cccc(S(=O)(=O)N2CCCCC2)c1	inconclusive: 3.7 µM [inhibitor, single point]	
COc1cccc(C2c3c(-c4cc(Cl)c(C)cc4O)n[nH]c3C(=O)N2Cc2cccnc2)c1 (stereo not drawn)	active: 6.57 µM	
CN1C(=O)CC(N2CCC(C(N)=O)CC2)C1=O (stereo not drawn)	inconclusive: 14.7 µM [inhibitor, partial curve, poor fit]	
C=CCn1c(SCC(=O)Nc2cccc(S(=O)(=O)N(C)c3ccccc3)c2)nnc1C1CC1	inconclusive: 11.7 µM [inhibitor, partial curve, poor fit]	
CCOC(=O)c1oc2ccc(S(=O)(=O)n3nc(-c4ccc(OC)cc4)cc3N)cc2c1C		inactive: 8.12%
Cc1cccc(Nc2nc(-c3ccccn3)cs2)n1		inactive: 27.4%
COc1cc(C(=O)Nc2cc3c(cc2N2CCCCC2)n(C)c(=O)n3C)cc(OC)c1OC	inconclusive: 6.57 µM [inhibitor, partial curve, poor fit]	
